Test results published in PMC3991700.
For some of these results: Negatives hold for the conditions tested. For some of these results: Tags and fusion partners may be left off the protein sequences shown. Construct, isoform or probe ends are uncertain for at least one entry. For some of these results: A weaker result is weaker than the reference pair of the same experiment.

Legend:
[1] = biological target: T1, FilR1 (Methanosaeta harundinacea 6Ac) (UniProt G7WMP6); assay: EMSA; settings: 10 mM Mg2+, poly dI-dC, EMSA: 10 mM Tris-HCl pH 8.0, 50 mM KCl, 10 mM MgCl2, 1 mM DTT, 2.5% glycerol, 1% NP-40, 0.5 mM EDTA, 1 ug/uL poly dI-dC, 10 fmol (0.5 nM) biotin probe, 20 uL, 25 C, recombinant protein, residues 1-445, protein details: His6 (pET28a), label: 5' biotin on forward primer, probe letters rebuilt from the primers and the genome
T1 sequence (looked up): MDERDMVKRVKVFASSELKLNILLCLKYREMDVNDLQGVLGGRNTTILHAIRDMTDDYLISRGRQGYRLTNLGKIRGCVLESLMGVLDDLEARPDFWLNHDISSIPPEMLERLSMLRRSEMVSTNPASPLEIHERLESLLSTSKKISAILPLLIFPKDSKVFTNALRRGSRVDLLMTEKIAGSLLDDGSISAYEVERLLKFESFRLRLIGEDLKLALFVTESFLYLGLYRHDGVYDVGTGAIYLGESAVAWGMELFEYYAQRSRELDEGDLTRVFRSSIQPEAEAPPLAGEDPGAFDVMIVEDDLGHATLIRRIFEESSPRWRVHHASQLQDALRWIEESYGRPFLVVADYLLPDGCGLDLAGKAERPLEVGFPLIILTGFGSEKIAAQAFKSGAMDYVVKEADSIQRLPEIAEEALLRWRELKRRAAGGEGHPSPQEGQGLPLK

[2] = biological target: Pi-FilR1 (FilR1 phosphorylated by FilI) (Methanosaeta harundinacea 6Ac) (UniProt G7WMP6); assay: EMSA; settings: FilI + ATP phosphorylation, enhanced affinity vs unphosphorylated FilR1; EMSA: 10 mM Tris-HCl pH 8.0, 50 mM KCl, 10 mM MgCl2, 1 mM DTT, 2.5% glycerol, 1% NP-40, 0.5 mM EDTA, 1 ug/uL poly dI-dC, 10 fmol (0.5 nM) biotin probe, 20 uL, 25 C; recombinant protein; residues 1-445; protein details: His6 (pET28a); label: 5' biotin on forward primer; probe letters rebuilt from the primers and the genome

Row | Sequence | binding result [1] | binding result [2] | binding result ([1]; low affinity)
1 | ATTCCACCTCCTCATATCCCCTCAGATTTTCCGCAAAACAAGACGATAACCTCGTCTGTGGCATTCCTTTATAGCACTTTCCAGAAGAATAGCCGGGTCAGAAGCGGGAGGTTTAGTGCATAATCGCTGGTATTTGTGGATCGCTTGGATGAGACGATGATGGTAAAGGTCTGCCAAAATAGCAAAAGTCATTGAATATAATTTGTAAAAGAGCGCCGAGGGGGAGATTCGAACTCCCGCGACCCTTGCGAATCACAAGCTTTCAGTAGAGAATTCCAGGCTTGCGCCTTACCACTAGACTACCTCGGCAC (double strand) [PMhar_0449] | no binding | – | –
2 | AAGCCCTGCCTGCCAAAGCCATCCCCCAAACGTCTGTGGACTAGCAAAGAATGCCAATGCAGTATATTAAAGTGACCGTCCCCAGGGTACGACCGCACAATATTTAGCCCTGGGGAGGGGAGGGGATAGAGTTTGAATCTGATGGTGA (double strand) [PfwdCABD] | – | binds | binds more weakly
3 | AACGGGTTCCATCTCGATATGATCAAGGGGTGGGGGGTTTATTAATAGGTTGAGGTCCCCCTCTCGAGGCCCGGAAAGGGCAAGAGATCCCCCGATAGATTTTTATCGACCGCATATTATCGAATTTTCCCCCGGCAGAGAGGCGGAGGCTTTATACCATTTTGGCATATCGAGGGTGAGTGGGTGAATCGGCATGGCGGAG (double strand) [Pacs1] | – | binds | –
